Only a part is listed here, and it is no random draw. At the low end of the ranking the order means little.
Key:
Assay in all cases: DAPPL (digital affinity profiling via proximity ligation, sequencing)
Conditions in all cases: 10 mM Tris-HCl pH 7.5, 50 mM NaCl, 1 mM DTT, 4% glycerol, room temperature, 30 min; GST-TFs on glutathione beads, 16-mer random dsDNA library, 0.1% …; high values mean tight binding; double strand, one strand shown; scale: fold enrichment (6-mer frequency, TF over GST control)
FLI1 = molecular target: T1, FLI1 (UniProt Q01543)
T1 sequence: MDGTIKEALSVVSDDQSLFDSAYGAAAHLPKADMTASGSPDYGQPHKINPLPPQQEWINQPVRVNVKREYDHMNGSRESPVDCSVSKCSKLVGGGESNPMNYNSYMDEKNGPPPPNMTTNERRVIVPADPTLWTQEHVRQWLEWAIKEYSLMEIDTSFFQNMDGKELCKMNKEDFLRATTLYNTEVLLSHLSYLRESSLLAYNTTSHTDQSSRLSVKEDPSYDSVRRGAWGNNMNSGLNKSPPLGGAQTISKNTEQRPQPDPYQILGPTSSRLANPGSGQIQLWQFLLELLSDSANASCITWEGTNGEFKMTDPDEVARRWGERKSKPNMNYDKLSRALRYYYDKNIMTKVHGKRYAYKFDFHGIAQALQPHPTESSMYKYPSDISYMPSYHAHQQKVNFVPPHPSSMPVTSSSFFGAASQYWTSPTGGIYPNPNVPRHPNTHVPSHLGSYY

Sequences of proteins named here, by UniProt entry; tags and fusion partners are left off. A change or cut given only in a name is not applied to a line headed by its entry.
UniProt P41161: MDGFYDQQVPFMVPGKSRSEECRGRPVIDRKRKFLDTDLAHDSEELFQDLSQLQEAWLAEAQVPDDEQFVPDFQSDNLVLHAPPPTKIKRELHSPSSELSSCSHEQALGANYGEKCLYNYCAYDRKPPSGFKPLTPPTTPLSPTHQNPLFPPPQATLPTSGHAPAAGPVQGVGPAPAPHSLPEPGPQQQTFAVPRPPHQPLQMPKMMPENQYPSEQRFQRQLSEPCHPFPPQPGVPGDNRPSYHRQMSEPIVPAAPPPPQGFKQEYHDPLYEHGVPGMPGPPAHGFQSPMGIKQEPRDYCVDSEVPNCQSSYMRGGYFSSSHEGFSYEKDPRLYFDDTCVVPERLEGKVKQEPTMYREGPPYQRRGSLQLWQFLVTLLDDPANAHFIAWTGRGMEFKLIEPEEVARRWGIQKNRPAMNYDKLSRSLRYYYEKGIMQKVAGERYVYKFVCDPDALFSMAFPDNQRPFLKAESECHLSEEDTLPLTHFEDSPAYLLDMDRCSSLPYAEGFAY
UniProt Q99607: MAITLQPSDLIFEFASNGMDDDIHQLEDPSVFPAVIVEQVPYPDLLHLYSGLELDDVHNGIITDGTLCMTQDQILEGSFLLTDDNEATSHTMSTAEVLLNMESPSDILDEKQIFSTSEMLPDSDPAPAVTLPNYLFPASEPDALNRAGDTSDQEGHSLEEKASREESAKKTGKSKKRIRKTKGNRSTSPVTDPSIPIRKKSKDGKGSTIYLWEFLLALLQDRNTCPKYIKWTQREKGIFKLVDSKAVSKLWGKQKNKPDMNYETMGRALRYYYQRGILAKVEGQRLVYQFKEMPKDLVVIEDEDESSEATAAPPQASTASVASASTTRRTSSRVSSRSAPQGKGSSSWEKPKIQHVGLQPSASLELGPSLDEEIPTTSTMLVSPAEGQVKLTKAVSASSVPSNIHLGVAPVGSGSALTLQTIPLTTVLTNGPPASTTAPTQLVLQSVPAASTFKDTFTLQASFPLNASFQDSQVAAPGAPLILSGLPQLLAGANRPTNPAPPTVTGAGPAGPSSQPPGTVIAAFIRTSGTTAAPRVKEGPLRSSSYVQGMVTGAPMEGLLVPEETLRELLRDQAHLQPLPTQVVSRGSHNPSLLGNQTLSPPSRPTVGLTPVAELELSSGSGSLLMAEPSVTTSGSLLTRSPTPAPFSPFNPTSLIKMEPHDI
UniProt Q01892: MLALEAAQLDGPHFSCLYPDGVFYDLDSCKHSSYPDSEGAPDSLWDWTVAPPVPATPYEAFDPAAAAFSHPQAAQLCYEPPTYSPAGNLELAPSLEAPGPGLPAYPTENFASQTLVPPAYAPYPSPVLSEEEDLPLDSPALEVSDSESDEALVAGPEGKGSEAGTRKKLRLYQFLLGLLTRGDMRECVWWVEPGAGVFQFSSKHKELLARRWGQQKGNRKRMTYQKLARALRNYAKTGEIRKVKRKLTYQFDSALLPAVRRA

EHF = molecular target: T2, EHF (UniProt Q9NZC4)
T2 sequence: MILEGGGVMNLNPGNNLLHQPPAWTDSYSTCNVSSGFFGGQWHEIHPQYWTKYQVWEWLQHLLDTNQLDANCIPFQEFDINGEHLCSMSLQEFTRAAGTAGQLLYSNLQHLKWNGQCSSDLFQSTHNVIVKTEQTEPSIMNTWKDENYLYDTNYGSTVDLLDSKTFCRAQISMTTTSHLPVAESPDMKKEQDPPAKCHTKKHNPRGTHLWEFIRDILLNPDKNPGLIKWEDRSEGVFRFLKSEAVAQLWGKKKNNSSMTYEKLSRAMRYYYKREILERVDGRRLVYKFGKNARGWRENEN

ETV5 = ETV5 (UniProt P41161)
ELF4 = ELF4 (UniProt Q99607)
ETV2 = molecular target: T3, ETV2 (UniProt O00321)
T3 sequence: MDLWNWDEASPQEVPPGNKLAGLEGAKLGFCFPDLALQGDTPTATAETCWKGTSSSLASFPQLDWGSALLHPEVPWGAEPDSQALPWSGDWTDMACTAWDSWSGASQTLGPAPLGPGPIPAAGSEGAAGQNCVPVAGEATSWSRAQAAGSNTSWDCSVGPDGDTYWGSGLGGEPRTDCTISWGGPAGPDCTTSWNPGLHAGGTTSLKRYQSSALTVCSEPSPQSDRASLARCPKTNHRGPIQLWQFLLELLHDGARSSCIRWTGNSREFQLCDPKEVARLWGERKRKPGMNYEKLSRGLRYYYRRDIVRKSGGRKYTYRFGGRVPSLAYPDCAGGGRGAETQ

ETV3L = molecular target: T4, ETV3L (UniProt Q6ZN32)
T4 sequence: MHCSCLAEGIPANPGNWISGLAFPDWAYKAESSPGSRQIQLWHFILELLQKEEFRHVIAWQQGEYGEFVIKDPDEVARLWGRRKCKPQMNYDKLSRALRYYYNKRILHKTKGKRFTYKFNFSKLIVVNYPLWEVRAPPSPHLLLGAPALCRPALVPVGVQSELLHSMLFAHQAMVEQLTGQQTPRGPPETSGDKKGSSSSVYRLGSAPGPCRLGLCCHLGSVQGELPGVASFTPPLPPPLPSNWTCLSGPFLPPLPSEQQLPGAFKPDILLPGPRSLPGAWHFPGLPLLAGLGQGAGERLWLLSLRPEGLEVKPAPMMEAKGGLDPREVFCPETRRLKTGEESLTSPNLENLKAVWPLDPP

SPIB = SPIB (UniProt Q01892)

Row | Sequence | binding signal (FLI1) | binding signal (EHF) | binding signal (ETV5) | binding signal (ELF4) | binding signal (ETV2) | binding signal (ETV3L) | binding signal (SPIB)
1 | GTATTG | 0.97 | 0.992 | 0.921 | 0.968 | 0.783 | 1.01 | 
2 | GTGTAA | 0.848 | 0.908 | 0.93 | 0.905 | 0.836 | 0.974 | 0.933
3 | GCAGGT | 0.897 | 0.819 | 0.842 | 0.871 | 0.855 | 0.804 | 0.821
4 | GTGCTG | 0.969 | 0.889 | 0.897 | 0.888 | 0.908 | 0.902 | 0.84
5 | GTTTAG | 0.79 | 0.843 | 0.838 | 0.815 | 0.881 | 0.804 | 0.896
6 | CCCAGA | 0.861 | 0.808 | 0.874 | 0.929 | 0.893 | 0.88 | 0.781
7 | GTTGGC | 0.985 | 0.869 | 0.896 | 0.853 | 0.912 | 0.923 | 0.867
8 | AGGATA | 0.996 | 0.998 | 0.984 | 0.916 | 0.97 | 1 | 0.971
9 | AGAATC | 0.921 | 0.845 | 0.978 | 0.928 | 0.941 | 0.969 | 0.979
10 | CGACTG | 0.999 |  | 1.06 | 0.998 | 1.19 |  | 
11 | TGTAAG | 0.996 |  | 1.08 | 0.996 | 0.906 | 1.03 | 
12 | GTTGTC | 0.883 | 0.985 | 0.91 | 0.838 | 0.892 | 0.85 | 0.918
13 | TGTCAG | 0.846 | 0.936 | 0.853 | 0.921 | 0.827 | 0.94 | 0.934
14 | AGGCTT | 0.988 | 0.975 | 0.991 | 0.963 | 0.935 | 0.969 | 0.933
15 | TAGAAC | 0.998 | 0.977 | 0.946 | 0.982 | 0.903 | 0.954 | 0.866
16 | TCGAAG | 0.981 | 0.807 | 0.897 | 0.957 | 0.808 | 0.904 | 0.9
17 | GATTAG | 0.881 | 0.875 | 0.86 | 0.919 | 0.875 | 0.964 | 0.771
18 | CGAGTA | 0.838 | 0.797 | 0.866 | 0.883 | 0.902 | 0.765 | 0.797
19 | TCAGAC | 0.91 | 0.89 | 0.808 | 0.919 | 0.943 | 0.932 | 0.834
20 | ACAAGT | 0.937 | 0.95 | 0.911 | 0.949 | 0.783 | 0.89 | 0.885
21 | GAAAGC | 0.873 | 0.818 | 0.856 | 0.933 | 0.885 | 0.891 | 0.966

Row | Sequence | binding signal (FLI1) | binding signal (EHF) | binding signal (ETV5) | binding signal (ELF4) | binding signal (ETV2) | binding signal (ETV3L) | binding signal (SPIB)
22 | GGTTAA | 0.964 | 0.888 | 0.891 | 0.931 | 0.851 | 0.914 | 0.915
23 | AACGCG | 0.988 | 0.943 | 0.956 | 1.01 | 0.901 | 0.966 | 1
24 | TTGAGA | 0.928 | 0.883 | 0.869 | 0.892 | 0.866 | 0.86 | 0.918
25 | GACTCG | 0.93 | 0.91 | 0.886 | 0.93 | 0.931 | 0.834 | 0.871
26 | GATAGT | 0.813 | 0.763 | 0.839 | 0.811 | 0.868 | 0.849 | 0.806
27 | TCGAGG | 0.851 | 0.794 | 0.792 | 0.788 | 0.847 | 0.847 | 0.773
28 | GCCCGG | 0.987 | 0.926 | 1.01 | 0.962 | 0.848 | 0.875 | 0.925
29 | TCAAGA | 0.878 | 0.885 | 0.841 | 0.895 | 0.81 | 0.902 | 0.884
30 | GAAAGG | 0.995 | 0.927 | 0.922 | 0.949 | 0.85 | 0.907 | 0.866
31 | AGGTAA | 0.942 | 0.876 | 0.965 | 0.916 | 0.918 | 0.903 | 0.961
32 | AGAAGA | 0.907 | 0.889 | 0.895 | 0.974 | 0.945 | 0.903 | 0.971
33 | AAGGGA | 0.896 | 0.927 | 0.887 | 0.866 | 0.836 | 0.845 | 0.878
34 | AGATGT | 0.964 | 0.904 | 0.929 | 0.916 | 0.887 | 1 | 0.869
35 | AAGGCC | 0.89 | 0.857 | 0.903 | 0.925 | 0.985 | 0.897 | 0.977
36 | AGGAAT | 0.777 | 0.819 | 0.845 | 0.782 | 0.748 | 0.789 | 0.758
37 | CAGAAG | 0.688 | 0.843 | 0.737 | 0.757 | 0.763 | 0.719 | 0.709
38 | TTAGTG | 0.847 | 0.861 | 0.837 | 0.858 | 0.861 | 0.772 | 0.881
39 | GAGCTC | 0.952 | 0.994 | 0.944 | 1.02 | 0.895 | 0.903 | 0.913
40 | GCGGCA | 0.885 | 0.809 | 0.847 | 0.951 | 0.961 | 0.866 | 0.861
41 | ATGAGG | 0.849 | 0.979 | 0.979 | 0.937 | 0.8 | 0.972 | 0.996
42 | AGAACC | 0.863 | 0.914 | 0.917 | 0.898 | 0.926 | 0.909 | 0.856

Records 29 through 30 of the list above:
Row | Sequence | binding signal (FLI1) | binding signal (EHF) | binding signal (ETV5) | binding signal (ELF4) | binding signal (ETV2) | binding signal (ETV3L) | binding signal (SPIB)
29 | TCAAGA | 0.878 | 0.885 | 0.841 | 0.895 | 0.81 | 0.902 | 0.884
30 | GAAAGG | 0.995 | 0.927 | 0.922 | 0.949 | 0.85 | 0.907 | 0.866

Source: publication PMC7862700
